Experimental data reported in PubChem BioAssay AID2099 (Broad Institute, 2009).
The campaign covered roughly 330,000 compounds. About 230 (0.07%) were called active. The inconclusive results got no clear call from the source; some entries with a clear call stand among them for comparison.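 Rule for the calls: active = more than half of a compound's replicate wells show inhibition beyond 50%, single wells judged on their own value; inconclusive = some, but no more than half, of replicates pass 50% inhibition; inactive = no replicate passes 50% inhibition.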

Chains of the proteins cited; added tags and fusions are not shown. Residues count along the entry.
UniProt Q9H3R0, 1-420 limits assumed: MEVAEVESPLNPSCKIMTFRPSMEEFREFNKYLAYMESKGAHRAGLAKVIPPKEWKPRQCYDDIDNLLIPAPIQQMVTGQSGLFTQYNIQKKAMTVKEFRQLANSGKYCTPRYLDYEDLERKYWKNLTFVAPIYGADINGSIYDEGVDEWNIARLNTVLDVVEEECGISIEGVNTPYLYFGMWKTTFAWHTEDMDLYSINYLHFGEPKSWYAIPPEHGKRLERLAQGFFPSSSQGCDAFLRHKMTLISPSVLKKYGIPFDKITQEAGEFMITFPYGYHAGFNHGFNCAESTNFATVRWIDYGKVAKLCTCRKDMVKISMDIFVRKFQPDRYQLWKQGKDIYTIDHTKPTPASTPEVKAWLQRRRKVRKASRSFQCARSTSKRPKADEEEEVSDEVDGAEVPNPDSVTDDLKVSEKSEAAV

molecular target: Lysine-specific demethylase 4C (Homo sapiens) (UniProt Q9H3R0); assay: inhibitors of GASC-1 histone demethylase, primary screen, biochemical, fluorescence, DELFIA europium (AID 2099); conditions: GST-JMJD2C(1-420) H3K9me3 demethylation, at 2.35 µM, stronger effect = higher value;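 note: signal counts dimethyl H3K9 product captured on neutravidin plate; 0% = median of DMSO wells and 100% = 0.3 times that DMSO median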

| Structure (SMILES) | inhibition |
| --- | --- |
| COc1cccc(-n2c(=O)n(Cc3ccccc3)c(=O)c3[nH]cnc32)c1C | inconclusive: -61% |
| CCOc1ccc(S(=O)(=O)Nc2cc(SCC(=O)O)c(O)c3ccccc23)cc1 | inconclusive: -52.6% |
| Cc1ccsc1C(=O)OCc1nc2ccccc2c(=O)[nH]1 | active: 103% |
| O=C(NCC(c1ccco1)N1CCN(c2ccc(F)cc2)CC1)c1ccco1 (stereo unspecified) | inconclusive: -51% |
| CCOC(=O)c1cnn2c(C(F)(F)F)cc(-c3ccccc3)nc12 | inconclusive: -53.5% |
| CCCN(CC(=O)Nc1ccccc1C)C(=O)c1ccc(N2CCCCCC2)c([N+](=O)[O-])c1 | inactive: 6.36% |
| COc1ccc(NC(=S)NC(=O)C2CCCCC2)cc1 | inconclusive: -50.3% |
| CN(C)Cc1c(C(=O)Nc2ccccc2)[nH]c2ccccc12 | inconclusive: -77.9% |
| COc1ccc(/C=C2\C(=O)ON=C2c2ccccc2)cc1 | inconclusive: -58.3% |
| Cc1cccc(C)c1NC(=S)NN(Cc1ccccc1)c1ccccc1 | active: 71.7% |
| Cn1c2c(c(=O)n(C)c1=O)C(C(F)(F)F)(C(F)(F)F)N=C(c1ccccc1Cl)N2 | inconclusive: -52.1% |
| CCOc1ccc(Nc2nc3cc(S(=O)(=O)CC)ccc3o2)cc1 | inactive: -1.55% |
| NC(=O)c1cc2ccc(O)cc2oc1=NCc1ccccc1 | inactive: 2.7% |
| COc1cc(OC)c(NC(=O)c2ccco2)cc1Cl | inconclusive: -134% |
| CCCCC(=O)Nc1ccc(C(=O)NNC(=O)CCc2ccccc2)cc1 | inconclusive: -84.6% |
| COc1cccc(NC(=O)CSc2nc3ccccc3c(=O)n2CCCC(=O)N2CCCC2)c1 | inactive: 31.4% |
| N#Cc1cccc(NC(=O)CSc2ccc3c4c(cccc24)C(=O)c2ccccc2-3)c1 | inactive: -1.28% |
| NNC(=O)c1nn(-c2ccc(Cl)cc2)ccc1=O | active: 55% |
| O=C(c1cccc(Br)c1)N1CCCc2ccccc21 | inactive: 7.77% |
| Cc1ccc(NC(=O)c2noc3c2CC(C(C)(C)C)CC3)cc1 (stereo unspecified) | inconclusive: -56.2% |
| CC12CCC(=O)N1C(C(=O)OCC(=O)Nc1cccc(S(=O)(=O)N3CCCCCC3)c1)CS2 (stereo unspecified) | inactive: 7.71% |
| CCOc1ccc2nc(NC(=O)Nc3ccccc3)sc2c1 | inconclusive: -103% |

4 records picked at random from those above, as already listed:

| Structure (SMILES) | inhibition |
| --- | --- |
| COc1ccc(/C=C2\C(=O)ON=C2c2ccccc2)cc1 | inconclusive: -58.3% |
| COc1ccc(NC(=S)NC(=O)C2CCCCC2)cc1 | inconclusive: -50.3% |
| Cc1ccc(NC(=O)c2noc3c2CC(C(C)(C)C)CC3)cc1 (stereo unspecified) | inconclusive: -56.2% |
| Cn1c2c(c(=O)n(C)c1=O)C(C(F)(F)F)(C(F)(F)F)N=C(c1ccccc1Cl)N2 | inconclusive: -52.1% |

Next structures:

| Structure (SMILES) | inhibition |
| --- | --- |
| CCOc1ccccc1N(CC(=O)NCc1ccc(OC)cc1)S(C)(=O)=O | inconclusive: -14.4% |
| Cc1cccc(NC(=O)[C@@H](NC(=O)[C@@H]2Cc3ccccc3CN2)C(C)C)c1 | inconclusive: -97.5% |
| CCCCCCCCCCCCCCCC[n+]1cccc(C(=O)N(CC)CC)c1 | inactive: 20.1% |
| COc1ccc(/C=C2/Sc3ccc(C(=O)N4CCc5ccccc5C4)cc3NC2=O)cc1 | inconclusive: -91.7% |
| CCn1c(SCC(=O)Nc2cc(C)c(Cl)cc2OC)nnc1-c1ccco1 | inconclusive: -207% |
| Cc1ccsc1CCNC(=O)C1CCC(=O)N(CCc2cccc(F)c2)C1 (stereo unspecified) | inactive: 2.66% |
| CC1(C)CC(=O)c2c(-c3cccnc3)n[nH]c2C1 | inactive: 25.4% |
| COc1ccc(S(=O)(=O)N2CCCCC2)cc1-n1cnnn1 | inactive: 2.08% |
| Cc1cc(NC(=O)C(C)N2C(=O)c3ccccc3S2(=O)=O)no1 (stereo unspecified) | inconclusive: -69.3% |
| CCOC(=O)[C@H](O)[C@@H](O)c1cccc([C@H](O)[C@@H](O)C(=O)OCC)c1 | inconclusive: -433% |
| O=C(Cn1c(=O)oc2ccc(Cl)cc21)Nc1ccon1 | inconclusive: -90.2% |
| CC(=O)Nc1ccc2c(c1)N(S(=O)(=O)c1cccs1)CCC2 | inconclusive: -53.5% |
| CCS(=O)(=O)N1CCC(NC(=O)C(Cc2cccc(OC)c2OC)NC(C)=O)CC1 (stereo unspecified) | inconclusive: -58.2% |
| COc1ccc(CCn2c(=N)c(C(=O)N3CCN(C)CC3)cc3c(=O)n4ccccc4nc32)cc1 | inconclusive: -84.5% |
| Cc1cc(C)c(NC(=O)C(=O)NCc2ccco2)c(C)c1 | inconclusive: -50.3% |
| O=C(Nc1nnc(C2CCCC2)s1)C1CCN(S(=O)(=O)c2ccc(Cl)cc2)CC1 | inconclusive: -55.8% |
| Cc1ccc(NC(=O)NC2CC(=O)N(c3ccc4c(c3)OCCO4)C2)cc1C (stereo unspecified) | inactive: -10.4% |
| Cc1ccc(S(=O)(=O)N2CCN(C(=O)CN3CCc4ccccc4C3)CC2)cc1 | inconclusive: -104% |
| Cc1ccc(NC(=S)Nc2cccnc2)c(S(=O)(=O)N2CCCCC2)c1 | inconclusive: -99.4% |
| CC(=O)Nc1ccc(S(=O)(=O)N2CCCN(S(=O)(=O)c3ccc(C)cc3)CC2)cc1 | inconclusive: -102% |
| COC(=O)c1c(C(=O)OC)c(-c2ccc(F)cc2)n2c1CS(=O)(=O)C2 | inconclusive: -54.7% |
| C/C(Cl)=C/Cn1c(NCCN(C)C)nc2c1c(=O)n(C)c(=O)n2C | inconclusive: -50.4% |

| Structure (SMILES) | inhibition |
| --- | --- |
| Cc1nnc2sc(SCc3ccccc3)nn2c1=O | inconclusive: -50.1% |
| COc1ccc(NC(=O)N(C)C[C@H]2Oc3c(NS(=O)(=O)c4cn(C)cn4)cccc3C(=O)N([C@H](C)CO)C[C@@H]2C)cc1 | active: 57.9% |
| Cc1cc(SCC(=O)OCC(=O)N2CCN(C(=O)c3ccco3)CC2)c(C)cc1Br | inconclusive: -222% |
| CN(Cc1c(F)cccc1Cl)C(=O)c1ccc(NC(=O)CC2SC(N3CCCC3)=NC2=O)cc1 (stereo unspecified) | inconclusive: -49% |
| CCOC(=O)N1CCC(NC(=O)CS(=O)(=O)Cc2nc(-c3ccc(OC)cc3)oc2C)CC1 | inactive: 31.2% |
| Cc1c(NC(=O)Nc2ccc(Cl)cc2)c(=O)n(-c2ccccc2)n1C | inconclusive: -151% |
| O=C(N/N=C\c1cccnc1)c1cc(-c2ccc(Cl)s2)[nH]n1 | inconclusive: -79.8% |
| Cc1ccc(C(C(=O)NCC2CCCO2)N(C(=O)c2snc(C(N)=O)c2N)c2ccc3c(c2)OCCO3)cc1 (stereo unspecified) | inconclusive: -65.4% |
| O=C1CCCN1c1ccc(S(=O)(=O)Nc2ccc3c(c2)OCCO3)cc1 | inconclusive: -49.6% |
| O=C1CCC(c2ccc3c(c2)CCC3)=NN1 | inactive: -32% |
| COC(=O)c1ccc(CNC(=O)CNc2cc(C(F)(F)F)ccc2N2CCOCC2)cc1 | inconclusive: -55.2% |
| CC(=O)Nc1cccc(OCC(=O)Nc2ccccc2)c1 | inconclusive: -54.6% |
| O=C(O)c1ccc2c(c1)C(=O)N(CCc1ccccc1)C2=O | inconclusive: -114% |
| Cc1occc1-c1nnc(SCC(=O)NCC2CCCO2)n1C (stereo unspecified) | inconclusive: -67.4% |
| Cc1nn2c(-c3ccc(Cl)cc3Cl)nnc2s1 | inconclusive: -82.9% |
| O=C(CSc1ncccn1)n1c2c(c3ccccc31)CCCC2 | inactive: -2.54% |
| Cc1occc1C(=O)Nc1ccc(S(=O)(=O)N2CCN(C)CC2)cc1 | inconclusive: -110% |
| COCCn1nnnc1CN(CCc1ccccc1)Cc1cc2cc(OC)ccc2[nH]c1=O | inactive: -8.5% |
| CCOc1cc2[nH]c(=S)n(C(C)C)c(=O)c2cc1OCC | inconclusive: -65.1% |
| Cc1cccc(NC(=S)N2CCCN(c3ncccc3[N+](=O)[O-])CC2)c1 | inconclusive: -50.9% |
| CCOc1ccc(S(=O)(=O)N(CC(=O)N/N=C/c2ccc(-c3ccc([N+](=O)[O-])cc3)o2)c2ccccc2)cc1 | inactive: 24.3% |
| O=C(c1ccco1)N1CCC(c2nc3c(nnn3Cc3c(Cl)cccc3Cl)c(=O)[nH]2)CC1 | inactive: -10.8% |

| Structure (SMILES) | inhibition |
| --- | --- |
| COc1ccc(-c2csc3ncnc(N4CCN(S(=O)(=O)c5cccc(F)c5)CC4)c23)cc1 | inconclusive: -57.4% |
| COc1ccc(OC)c(S(=O)(=O)NCC(c2ccco2)N2CCc3ccccc32)c1 (stereo unspecified) | inconclusive: -35.5% |
| CCN(C(=O)COc1ccccc1)c1nnc(-c2cccnc2)s1 | inconclusive: -36.2% |
| COc1ccccc1C(=O)NC(=O)COC(=O)c1ccc(Cl)nc1 | inconclusive: -88.9% |
| COc1ccc(OCCn2ccnc2)cc1 | inconclusive: -60.9% |
| NC(=O)Cn1c(=O)n(CC(=O)N2CCCCC2)c(=O)c2sccc21 | inconclusive: -89.4% |
| CCN(C(=O)COC(=O)c1cc2ccccc2cc1O)C1CCS(=O)(=O)C1 (stereo unspecified) | inconclusive: -27.7% |
| NC(=O)c1ccc(N2CCCCC2)c(N2C(=O)C3CC=CCC3C2=O)c1 (stereo unspecified) | inconclusive: -138% |
| Cc1ccsc1C(=O)NNC(=O)c1ccc(NS(=O)(=O)c2cccs2)cc1 | inconclusive: -55.2% |
| CSc1ccccc1C(=O)Nc1ccc(C)c(C)c1 | active: 102% |
| COc1ccc(S(=O)(=O)n2ccc(-c3ccc(OCCN(C)c4ccccn4)cc3)n2)cc1 | inactive: -6.59% |
| CCCCc1cc(=O)oc2c(C)c(OCC(=O)NCCN3CCOCC3)ccc12 | inconclusive: -118% |
| NC(=O)CCn1c(C(=O)c2ccc(Cl)cc2)c2ccccc2[n+]1[O-] | inconclusive: -145% |
| Cc1ccc2c(c1)C(=O)C(=O)N2Cc1ccc(Cl)cc1 | inactive: -0.977% |
| COc1cc(C2/C(=C(\O)c3ccc4c(c3)CC(C)O4)C(=O)C(=O)N2CC2CCCO2)cc(OC)c1OC (stereo unspecified) | inconclusive: -72.9% |
| COC(=O)CCC(=O)OC1(C)C(=O)C=C2C=C3CCCN3C=C2C1=O (stereo unspecified) | inactive: -4.77% |
| Cc1cccc(N2CCN(c3nnc(C(F)(F)F)s3)CC2)c1 | inconclusive: -50.9% |
| O=C(COC(=O)c1ccc([N+](=O)[O-])o1)Nc1ccc(N2CCOCC2)cc1 | inactive: -4% |
| O=C(O)c1cc(-c2ccccc2)n[nH]1 | inconclusive: -133% |
| COc1ccc(CC(C)N2CCN(Cc3ccccc3)CC2)cc1OC (stereo unspecified) | inactive: -11.2% |
